# Out of some 140,000 compounds screened, about 4,300 (3.1%) were called active. This list was built around the results that the source calls inconclusive (neither active nor inactive); the mix of calls is not that of the screen.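 How the source made its calls: active means readout at or below -70, meaning at least 70% loss of cells showing the perinucleolar compartment, a nuclear body marking cancer cells; inconclusive means readout between -30 and a set limit; inactive means the rest.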
# Assay: High Content Assay for Compounds that inhibit the Assembly of the Perinucleolar Compartment;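 further: plate controls were DMSO wells for no effect and camptothecin positive control wells for full effect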
# Details: PC3M PTB-GFP, PNC prevalence imaging, 16 h; at 10 µM; active compounds read low
# How it was run: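 Compounds are pinned in duplicate onto adhered PC3M cells stably expressing GFP-tagged PTB and incubated 16 h at 37 C. Cells are then fixed, nuclei stained with Hoechst, and PNC-positive cells counted.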
row,SMILES,"activity change (PNC), negative = inhibition"
1,Cc1onc(-c2ccccc2Cl)c1C(=O)Nc1ccccc1,inconclusive: -58.9%
2,Cc1ccc(S(=O)(=O)N2CCN(C(=O)CCC(=O)NC3CCCc4ccccc43)CC2)cc1 (stereo not drawn),inconclusive: -68.9%
3,O=C(N/C(=C\c1ccco1)C(=O)N1CCCC1)c1cccs1,inconclusive: -34.8%
4,C=CCNc1nc2c3ccccc3n(C(C)=O)c2s1,inactive: -16.6%
5,COc1ccc(/C=C2\CCCC3C2=NN(C(=O)c2scnc2C)C3c2ccc(OC)c(OC)c2)cc1OC (stereo not drawn),inconclusive: -33.8%
6,COc1ccccc1NC(=O)CSC1CC(=O)N(c2ccc3c(c2)OCO3)C1=O (stereo not drawn),inactive: 7.51%
7,CCCN(CCC)CCCNC(=S)Nc1ccc2nc3n(c(=O)c2c1)CCCCC3,inactive: -15.3%
8,COc1ccc(-c2nnn(Cc3nc(N)nc(N4CCCCC4)n3)n2)cc1,inconclusive: -37.1%
9,CNC(=S)N1N=C(c2ccc(C)cc2)CC1c1ccc(Cl)cc1 (stereo not drawn),inconclusive: -71.3%
10,C=CCNC(=S)NNC(=O)c1cccn(Cc2cccc(Cl)c2)c1=O,inconclusive: -35.1%
11,O=C(NCc1ccco1)c1cccnc1-c1nc2ccccc2s1,inactive: -10.9%
12,Cc1ncoc1C(=O)Nc1ccc2c(c1)OCCO2,inconclusive: -43.1%
13,CCOC(=O)c1cnc2ccc(OCC)cc2c1N1CCN(c2ccccc2OC)CC1,inactive: -12.4%
14,COC(=O)c1ccc(COc2cc(O)c3c(c2)OC(C)(C)CC3=O)cc1,inconclusive: -44.2%
15,Nc1cc(S(=O)(=O)C(F)(F)F)ccc1C(=O)O,active: -127%
16,CN(C)CCNC(NC(=O)c1cccs1)C(Cl)(Cl)Cl (stereo not drawn),inconclusive: -43.1%
17,C/C(=C\C(=O)O)CC(=O)O,inconclusive: -54.5%
18,O=C(Oc1ccc(C(=S)N2CCOCC2)cc1)c1ccc(Br)cc1,inactive: -5.63%
19,CCCN1Cc2cccc(C(=O)Nc3cc(OC)cc(OC)c3)c2C1=O,inconclusive: -72.1%
20,CCOC(=O)C1=C(C)NC(=S)NC1c1cccs1 (stereo not drawn),active: -93.3%

# A second format for some results above:
row	SMILES	activity change (PNC), negative = inhibition
5	COc1ccc(/C=C2\CCCC3C2=NN(C(=O)c2scnc2C)C3c2ccc(OC)c(OC)c2)cc1OC (stereo not drawn)	inconclusive: -33.8%
13	CCOC(=O)c1cnc2ccc(OCC)cc2c1N1CCN(c2ccccc2OC)CC1	inactive: -12.4%

# Later entries:

row,SMILES,"activity change (PNC), negative = inhibition"
1,O=C(CSc1nc2cc(Cl)ccc2s1)NCc1ccc2c(c1)OCO2,inconclusive: -45.9%
2,O=C(COC(=O)c1c2c(nc3ccccc13)CCCC2)Nc1ccc2c(c1)OCO2,inconclusive: -69.7%
3,Cc1cccc(C)c1OCC(O)CNC(C)(C)C (stereo not drawn),inactive: 57.1%
4,CCCc1[nH][nH]c(=O)c1C(c1ccccc1)C(C#N)C#N (stereo not drawn),inconclusive: -76.6%
5,C=CCN=C1NN=C(c2cc(C)n(CCOC)c2C)CS1,inconclusive: -69.1%
6,CCc1cc[n+](/C(C(=S)Nc2cccc(C)c2)=C(/[O-])c2ccc(C)c([N+](=O)[O-])c2)cc1,inconclusive: -62.1%
7,COc1ccc(C(=O)NC(=S)NCc2cccnc2)cc1[N+](=O)[O-],inconclusive: -48.9%
8,c1ccc(C[n+]2csc3ccccc32)cc1,inactive: 32.1%
9,Nc1ncnc2c1ncn2C1CCC(CO)C(O)C1 (stereo not drawn),inconclusive: -47.7%
10,O=S(=O)(NCCCc1ccccc1)c1ccc(Cl)cc1,inconclusive: -44.8%
11,Cc1ccc(S(=O)(=O)N2CC(=O)Nc3ccccc32)cc1C,inactive: 5.54%
12,CCc1cccc(NC(=O)CCc2nc(-c3cccs3)no2)c1,inconclusive: -38.7%
13,CCOc1ccc(N/C=C/C(=O)c2ccc3ccccc3c2)c([N+](=O)[O-])c1,inactive: 32.6%
14,COc1ccc(C(C(=O)NC2CCCC2)N(CCN(C)C)C(=O)c2snc(C(N)=O)c2N)cc1 (stereo not drawn),active: -114%
15,Cn1nc(C(F)(F)F)c(C(=O)Nc2ccc(F)cc2F)c1Sc1ccc(C(F)(F)F)cc1,inactive: 32.7%
16,O=C(/C=C/c1ccccc1)N1CCN(CCN2C(=O)c3cccc4cccc(c34)C2=O)CC1,inconclusive: -33.4%
17,CCCCCCn1c(N2CCC(C(N)=O)CC2)nc2c1c(=O)[nH]c(=O)n2C,inconclusive: -66.1%
18,COC(=O)C1(c2ccccc2)NC(c2cccs2)C2C(=O)N(C)C(=O)C21 (stereo not drawn),inconclusive: -39.7%
19,Cc1ccc(S(=O)(=O)NC(=O)NC(C)(C)C)cc1,inactive: -28.8%
20,c1ccc(-c2ccccc2OCCN2CCCCC2)cc1,inconclusive: -33.1%

row,SMILES,"activity change (PNC), negative = inhibition"
1,Cc1cc(=O)[nH]c(SCC(=O)Nc2ccc(S(=O)(=O)N3CCCCC3)cc2)n1,inconclusive: -52%
2,Cn1c(N/N=C\c2cccc(O)c2)cc(=O)n(C)c1=O,inconclusive: -30.8%
3,O=C1CC(SC2=NCCS2)C(=O)N1c1ccc(Br)cc1 (stereo not drawn),inconclusive: -33.7%
4,CCCC1OC23CCCCC2C(C#N)(C#N)C1(C#N)C(=N)O3 (stereo not drawn),inconclusive: -54.7%
5,COc1ccc(NC(=O)CSc2ccccn2)cc1OC,inactive: 9.53%
6,Cc1onc(-c2ccccc2Cl)c1C(=O)Nc1ccc(-n2nncc2-c2ccco2)cc1,inconclusive: -42%
7,CCOC(=O)N1CCC(NC(=O)c2ccc(OC)c(CN3CC(=O)N4CCCC4C3=O)c2)CC1 (stereo not drawn),inconclusive: -41.5%
8,CCOC(=O)Cc1cn2c(=O)cc(CSCC(=O)Nc3ccc(C)c(C)c3)nc2s1,inconclusive: -36.4%
9,CCC(C)[C@H](NC(=O)N1CCN(C)CC1)C(=O)OC (stereo partly drawn),inconclusive: -36.5%
10,Cc1ccc(S(=O)(=O)CCSc2nc(C)cc(C(F)(F)F)c2C#N)cc1,active: -119%
11,CCSc1nnc2c(n1)[nH]c1c(C)cccc12,inconclusive: -37.6%
12,CC(C(=O)Nc1ccc2c(c1)OCCO2)N1CCN(C(=O)c2ccco2)CC1 (stereo not drawn),inconclusive: -79.2%
13,CCOc1ccccc1NC(=O)Cn1c(=O)n(CCC(=O)NC2CCCC2)c(=O)c2ccccc21,inconclusive: -34.4%
14,COc1ccc(N=Cc2cccc(C)c2O)cc1Cl,inconclusive: -45.9%
15,O=C(O)c1cccc(NCc2ccncc2)c1,active: -81.2%
16,O=C(Nc1ccccc1)c1cc([N+](=O)[O-])ccc1NC1CCCCC1,inconclusive: -41.6%
17,Cc1cc(Nc2ccccc2)nc(NCc2ccccc2)n1,inconclusive: -42.9%
18,CCOCCCNC(=O)N1CCOCC1,inconclusive: -34.6%
